Measurements published in the supplement of paper PMC8728848.
Some of the results follow.

Tests used:
Assay in all cases: glycan array binding signal (z-score within array); higher = stronger binding
Details in all cases: glycan notation: IUPAC condensed, linker removed
[1] = biological target: Neu5Ac(a2-3)Gal(b1-4)GlcNAc(b1-2)Man(a1-3)[Neu5Ac(a2-3)Gal(b1-4)GlcNAc(b1-2)Man(a1-6)]Man(b1-4)GlcNAc(b1-4)[Fuc(a1-6)]GlcNAc
Summary of the method: (§1)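 The Consortium for Functional Glycomics database supplied 3228 glycan arrays, of which those lacking an available protein sequence were dropped. The binding signal, a within-array Z-score, was averaged across arrays of the same protein sequence and across linkers. Negative scores can be read as non-binding.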

[2] = biological target: Neu5Ac(a2-3)Gal(b1-4)GlcNAc(b1-2)Man(a1-3)[Neu5Ac(a2-6)Gal(b1-4)GlcNAc(b1-2)Man(a1-6)]Man(b1-4)GlcNAc(b1-4)GlcNAc
Summary of the method: as §1

[3] = biological target: Neu5Ac(a2-3)Gal(b1-4)GlcNAc(b1-2)[Neu5Ac(a2-3)Gal(b1-4)GlcNAc(b1-4)]Man(a1-3)[GlcNAc(b1-4)][Neu5Ac(a2-3)Gal(b1-4)GlcNAc(b1-2)[Neu5Ac(a2-3)Gal(b1-4)GlcNAc(b1-6)]Man(a1-6)]Man(b1-4)GlcNAc(b1-4)GlcNAc
Summary of the method: as §1

[4] = biological target: Neu5Ac(a2-3)Gal(b1-4)GlcNAc(b1-2)[Neu5Ac(a2-3)Gal(b1-4)GlcNAc(b1-4)]Man(a1-3)[GlcNAc(b1-4)][Neu5Ac(a2-3)Gal(b1-4)GlcNAc(b1-4)Man(a1-6)]Man(b1-4)GlcNAc(b1-4)GlcNAc
Summary of the method: as §1

[5] = biological target: Neu5Ac(a2-3)Gal(b1-4)GlcNAc(b1-2)[Neu5Ac(a2-3)Gal(b1-4)GlcNAc(b1-6)]Man(a1-6)[Neu5Ac(a2-3)Gal(b1-4)GlcNAc(b1-2)Man(a1-3)]Man(b1-4)GlcNAc(b1-4)GlcNAc
Summary of the method: as §1

[6] = biological target: Neu5Ac(a2-3)Gal(b1-4)GlcNAc(b1-2)[Neu5Ac(a2-3)Gal(b1-4)GlcNAc(b1-6)]Man(a1-6)[Neu5Ac(a2-3)Gal(b1-4)GlcNAc(b1-2)Man(a1-3)][GlcNAc(b1-4)]Man(b1-4)GlcNAc(b1-4)GlcNAc
Summary of the method: as §1

[7] = biological target: Neu5Ac(a2-3)Gal(b1-4)GlcNAc(b1-3)Gal
Summary of the method: as §1

[8] = biological target: Neu5Ac(a2-3)Gal(b1-4)GlcNAc(b1-3)Gal(b1-3)GlcNAc
Summary of the method: as §1

[9] = biological target: Neu5Ac(a2-3)Gal(b1-4)GlcNAc(b1-3)Gal(b1-4)GlcNAc
Summary of the method: as §1

[10] = biological target: Neu5Ac(a2-3)Gal(b1-4)GlcNAc(b1-3)Gal(b1-4)GlcNAc(b1-2)Man(a1-3)[Neu5Ac(a2-3)Gal(b1-4)GlcNAc(b1-3)Gal(b1-4)GlcNAc(b1-2)Man(a1-6)]Man(b1-4)GlcNAc(b1-4)GlcNAc
Summary of the method: as §1

[11] = biological target: Neu5Ac(a2-3)Gal(b1-4)GlcNAc(b1-3)Gal(b1-4)GlcNAc(b1-3)Gal(b1-4)GlcNAc
Summary of the method: as §1

[12] = biological target: Neu5Ac(a2-3)Gal(b1-4)GlcNAc(b1-3)Gal(b1-4)GlcNAc(b1-3)Gal(b1-4)GlcNAc(b1-2)Man(a1-3)[Neu5Ac(a2-3)Gal(b1-4)GlcNAc(b1-3)Gal(b1-4)GlcNAc(b1-3)Gal(b1-4)GlcNAc(b1-2)Man(a1-6)]GalNAc
Summary of the method: as §1

[13] = biological target: Neu5Ac(a2-3)Gal(b1-4)GlcNAc(b1-3)Gal(b1-4)GlcNAc(b1-3)GalNAc
Summary of the method: as §1

[14] = biological target: Neu5Ac(a2-3)Gal(b1-4)GlcNAc(b1-3)Gal(b1-4)GlcNAc(b1-3)[Neu5Ac(a2-3)Gal(b1-4)GlcNAc(b1-3)Gal(b1-4)GlcNAc(b1-6)]GalNAc
Summary of the method: as §1

[15] = biological target: Neu5Ac(a2-3)Gal(b1-4)GlcNAc(b1-3)Gal(b1-4)GlcNAc(b1-6)[Gal(b1-3)]GalNAc
Summary of the method: as §1

[16] = biological target: Neu5Ac(a2-3)Gal(b1-4)GlcNAc(b1-3)Gal(b1-4)[Fuc(a1-3)]GlcNAc
Summary of the method: as §1

[17] = biological target: Neu5Ac(a2-3)Gal(b1-4)GlcNAc(b1-3)GalNAc
Summary of the method: as §1

[18] = biological target: Neu5Ac(a2-3)Gal(b1-4)GlcNAc(b1-3)[Neu5Ac(a2-3)Gal(b1-4)GlcNAc(b1-6)]GalNAc
Summary of the method: as §1

[19] = biological target: Neu5Ac(a2-3)Gal(b1-4)GlcNAc(b1-6)GalNAc
Summary of the method: as §1

[20] = biological target: Neu5Ac(a2-3)Gal(b1-4)GlcNAc(b1-6)[Gal(b1-3)]GalNAc
Summary of the method: as §1

[21] = biological target: Neu5Ac(a2-3)Gal(b1-4)GlcNAc(b1-6)[Neu5Ac(a2-3)Gal(b1-3)]GalNAc
Summary of the method: as §1

[22] = biological target: Neu5Ac(a2-3)Gal(b1-4)GlcNAc6S
Summary of the method: as §1

[23] = biological target: Neu5Ac(a2-3)Gal(b1-4)[Fuc(a1-3)]GlcNAc
Summary of the method: as §1

[24] = biological target: Neu5Ac(a2-3)Gal(b1-4)[Fuc(a1-3)]GlcNAc(b1-2)Man
Summary of the method: as §1

[25] = biological target: Neu5Ac(a2-3)Gal(b1-4)[Fuc(a1-3)]GlcNAc(b1-3)Gal
Summary of the method: as §1

[26] = biological target: Neu5Ac(a2-3)Gal(b1-4)[Fuc(a1-3)]GlcNAc(b1-3)Gal(b1-4)GlcNAc
Summary of the method: as §1

[27] = biological target: Neu5Ac(a2-3)Gal(b1-4)[Fuc(a1-3)]GlcNAc(b1-3)Gal(b1-4)[Fuc(a1-3)]GlcNAc(b1-3)Gal(b1-4)[Fuc(a1-3)]GlcNAc
Summary of the method: as §1

B1: Gal 12 (Homo sapiens), Q96DT0 (protein)
chain: MSQPSGGRAPGTRIYSWSCPTVMSPGEKLDPIPDSFILQPPVFHPVVPYVTTIFGGLHAGKMVMLQGVVPLDAHRFQVDFQCGCSLCPRPDIAFHFNPRFHTTKPHVICNTLHGGRWQREARWPHLALRRGSSFLILFLFGNEEVKVSVNGQHFLHFRYRLPLSHVDTLGIFGDILVEAVGFLNINPFVEGSREYPAGHPFLLMSPRLEVPCSHALPQGLSPGQVIIVRGLVLQEPKHFTVSLRDQAAHAPVTLRASFADRTLAWISRWGQKKLISAPFLFYPQRFFEVLLLFQEGGLKLALNGQGLGATSMNQQALEQLRELRISGSVQLYCVHS
With B1 the “glycan array binding signal (z-score)” value [1] was -0.456, the “glycan array binding signal (z-score)” value [2] was -0.383 and the “glycan array binding signal (z-score)” value [3] was 0.22. The “glycan array binding signal (z-score)” value [4] was -0.135, the “glycan array binding signal (z-score)” value [5] was 2.06 and the “glycan array binding signal (z-score)” value [6] was 0.844. For the same binder, the “glycan array binding signal (z-score)” value [7] was -0.004, the “glycan array binding signal (z-score)” value [8] was -0.851 and the “glycan array binding signal (z-score)” value [9] was 0.104. For the same binder, the “glycan array binding signal (z-score)” value [10] was 0.453, the “glycan array binding signal (z-score)” value [11] was 0.56 and the “glycan array binding signal (z-score)” value [12] was 0.17. For the same binder, the “glycan array binding signal (z-score)” value [13] was 0.603, the “glycan array binding signal (z-score)” value [14] was -1.66 and the “glycan array binding signal (z-score)” value [15] was -0.81. The “glycan array binding signal (z-score)” value [16] was -0.295, the “glycan array binding signal (z-score)” value [17] was -0.366 and the “glycan array binding signal (z-score)” value [18] was -0.111. For the same binder, the “glycan array binding signal (z-score)” value [19] was 0.429, the “glycan array binding signal (z-score)” value [20] was -0.558 and the “glycan array binding signal (z-score)” value [21] was -0.021. For the same binder, the “glycan array binding signal (z-score)” value [22] was 0.913, the “glycan array binding signal (z-score)” value [23] was -0.335 and the “glycan array binding signal (z-score)” value [24] was -1.63. For the same binder, the “glycan array binding signal (z-score)” value [25] was -0.314, the “glycan array binding signal (z-score)” value [26] was 0.703 and the “glycan array binding signal (z-score)” value [27] was 0.293.
